PubChem BioAssay AID1224828 – NIAID | 2016
The whole screen tested about 17,000 reagents; this is a part drawn at random. 762 of all reagents (4.5%) count as active. 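Active calls include both raised and lowered p65 entry, mostly lowered; wells with fewer than 50 cells lack a z-score.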 Raw values vary from plate to plate and are shown uncorrected. A number with no mark means an inactive call.

Purpose: 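Regulators linking TLR4 signalling to p65 nuclear translocation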 (primary screen)
System: mouse RAW264.7 G9 macrophage reporter cells (GFP-p65, Tnf promoter-mCherry)
Knock-down reagent: siRNA pool against mouse genes, 100 nM
Timing: 2 days siRNA transfection, then 40 min LPS before fixation
Treatment: LPS (Salmonella minnesota R595) at 10 ng/ml
Read-out: 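Microscopy ratio of nuclear to perinuclear-ring GFP-p65 signal, scaled to the plate median; gene score is the average of two replicate robust z-scores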
Reading the numbers: p65 translocation robust z-score: higher = more nuclear NF-kappaB p65 after LPS than the plate median; nuclear/cytoplasmic p65 ratio: higher = more nuclear NF-kappaB p65
Active means: 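Active if robust z is above 3.3 (negative regulators) or below -1.56, the Tlr4 control median (positive regulators); activity score 50 or more; control wells not called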
Meaning of the calls: active = hit (p65 shift raised or lowered); inactive = no clear change

target gene | PubChem SID | p65 translocation robust z-score | nuclear/cytoplasmic p65 ratio, rep 1 | nuclear/cytoplasmic p65 ratio, rep 2 | low cell count flag
Hrh3 | SID315476170 | -1.27 | 1.38 | 1.34 | enough cells to score
Fam91a1 | SID315477664 | -0.03 | 1.55 | 1.86 | enough cells to score
Cd320 | SID315471190 | 0.99 | 1.3 | 1.47 | enough cells to score
Haspin | SID315467048 | 0.13 | 1.83 | 1.31 | enough cells to score
Atp6v0d1 | SID315465563 | – | 1.31 | 1.59 | fewer than 50 cells per well; well left out of scoring
Bag5 | SID315474028 | -0.51 | 1.53 | 1.54 | enough cells to score
1700029F12Rik | SID315472466 | – | 1.47 | 1.37 | fewer than 50 cells per well; well left out of scoring
Sertad1 | SID315471310 | -1.52 | 1.43 | 1.23 | enough cells to score
Ccnj | SID315479514 | 0.36 | 1.5 | 1.44 | enough cells to score
Vrk1 | SID315470015 | – | 1.65 | 1.57 | fewer than 50 cells per well; well left out of scoring
Tpsab1 | SID315467873 | 0.49 | 1.89 | 1.53 | enough cells to score
Dnmbp | SID315474400 | 1.42 | 1.74 | 1.47 | enough cells to score
Dock6 | SID315481190 | 0.32 | 1.47 | 1.57 | enough cells to score
Paxx | SID315478574 | 0.46 | 1.66 | 1.91 | enough cells to score
Glmp | SID315471640 | 0.03 | 1.51 | 1.68 | enough cells to score
Cpt2 | SID315466101 | 1.05 | 1.67 | 1.47 | enough cells to score
Slc33a1 | SID315465242 | – | 1.13 | 1.18 | fewer than 50 cells per well; well left out of scoring
Tmem222 | SID315470944 | 1.15 | 1.67 | 1.78 | enough cells to score
Commd2 | SID315470951 | 1 | 1.72 | 1.96 | enough cells to score
Spint2 | SID315469428 | -0.41 | 1.47 | 1.52 | enough cells to score
Zfp296 | SID315472042 | -0.11 | 1.35 | 1.28 | enough cells to score
Nek5 | SID315481612 | -1.06 | 1.5 | 1.27 | enough cells to score
H2bc4 | SID315473369 | -1.31 | 1.43 | 1.39 | enough cells to score

Ordered by “nuclear/cytoplasmic p65 ratio, rep 2” (high to low): some entries from above.
target gene | PubChem SID | p65 translocation robust z-score | nuclear/cytoplasmic p65 ratio, rep 1 | nuclear/cytoplasmic p65 ratio, rep 2 | low cell count flag
Vrk1 | SID315470015 | – | 1.65 | 1.57 | fewer than 50 cells per well; well left out of scoring
Tpsab1 | SID315467873 | 0.49 | 1.89 | 1.53 | enough cells to score
Dnmbp | SID315474400 | 1.42 | 1.74 | 1.47 | enough cells to score
Ccnj | SID315479514 | 0.36 | 1.5 | 1.44 | enough cells to score

Further reagents:
target gene | PubChem SID | p65 translocation robust z-score | nuclear/cytoplasmic p65 ratio, rep 1 | nuclear/cytoplasmic p65 ratio, rep 2 | low cell count flag
Gzmm | SID315467754 | -2.13 (active) | 1.3 | 1.16 | enough cells to score
Dnajb2 | SID315471694 | 2.43 | 1.82 | 1.65 | enough cells to score
Rusf1 | SID315479129 | -0.84 | 1.39 | 1.78 | enough cells to score
Sirpb1a | SID315481404 | -1.02 | 1.43 | 1.49 | enough cells to score
Vmn1r172 | SID315475775 | – | 1.18 | 1.3 | fewer than 50 cells per well; well left out of scoring
Hsd11b1 | SID315467307 | -0.9 | 1.38 | 1.2 | enough cells to score
Cd209b | SID315473740 | -0.25 | 1.35 | 1.42 | enough cells to score
Cxcl2 | SID315469147 | 1.35 | 1.65 | 1.78 | enough cells to score
Psma1 | SID315470414 | – | 1.44 | 1.15 | fewer than 50 cells per well; well left out of scoring
Tspear | SID315479923 | 0.93 | 1.55 | 1.66 | enough cells to score
Rida | SID315467302 | 0.01 | 1.36 | 1.56 | enough cells to score
Fcgbpl1 | SID315481099 | -0.23 | 1.46 | 1.45 | enough cells to score
Ushbp1 | SID315479161 | – | 1.31 | 1.26 | fewer than 50 cells per well; well left out of scoring
Slk | SID315469504 | – | 2.21 | 2.03 | fewer than 50 cells per well; well left out of scoring
Akap9 | SID315476257 | 1.22 | 1.74 | 1.86 | enough cells to score
Acvr2b | SID315465280 | -1.44 | 1.45 | 1.2 | enough cells to score
Gatad2a | SID315479156 | -0.23 | 1.6 | 1.75 | enough cells to score
Cldn2 | SID315465993 | 0 | 1.47 | 1.38 | enough cells to score
Dmp1 | SID315466346 | – | 1.03 | 1.17 | fewer than 50 cells per well; well left out of scoring
Slc2a10 | SID315477167 | – | 1.37 | 1.21 | fewer than 50 cells per well; well left out of scoring
Slc16a3 | SID315475734 | -0.23 | 1.36 | 1.24 | enough cells to score
Fbxw17 | SID315476783 | – | 1.35 | 1.13 | fewer than 50 cells per well; well left out of scoring
Reep2 | SID315478416 | 0.97 | 1.82 | 1.89 | enough cells to score
Vmn1r45 | SID315469966 | -0.73 | 1.24 | 1.19 | enough cells to score
Stk39 | SID315471067 | 1.32 | 1.66 | 1.55 | enough cells to score
Minar2 | SID315478423 | -0.25 | 1.41 | 1.43 | enough cells to score
Ednrb | SID315466440 | 0.93 | 1.63 | 1.55 | enough cells to score
Atp6v1a | SID315465561 | 0.95 | 1.72 | 1.66 | enough cells to score
Tssk4 | SID315474186 | -1.03 | 1.42 | 1.34 | enough cells to score
Or5p73 | SID315479997 | – | 1.39 | 1.09 | fewer than 50 cells per well; well left out of scoring
Zfp451 | SID315476134 | -0.01 | 1.54 | 1.25 | enough cells to score
Or8g18 | SID315479936 | – | 1.16 | 1.37 | fewer than 50 cells per well; well left out of scoring
Tle4 | SID315469739 | 0.04 | 1.48 | 1.57 | enough cells to score
Rsl24d1 | SID315478406 | 0.76 | 1.54 | 2.14 | enough cells to score
Or9a7 | SID315480065 | 0.63 | 1.52 | 1.35 | enough cells to score
Gadd45g | SID315470215 | -0.62 | 1.37 | 1.27 | enough cells to score
